The text below walks through data of PMC7370515.

Protein sequences, listed by entry. Tags and fused reporters are not part of them.
UniProt P05412: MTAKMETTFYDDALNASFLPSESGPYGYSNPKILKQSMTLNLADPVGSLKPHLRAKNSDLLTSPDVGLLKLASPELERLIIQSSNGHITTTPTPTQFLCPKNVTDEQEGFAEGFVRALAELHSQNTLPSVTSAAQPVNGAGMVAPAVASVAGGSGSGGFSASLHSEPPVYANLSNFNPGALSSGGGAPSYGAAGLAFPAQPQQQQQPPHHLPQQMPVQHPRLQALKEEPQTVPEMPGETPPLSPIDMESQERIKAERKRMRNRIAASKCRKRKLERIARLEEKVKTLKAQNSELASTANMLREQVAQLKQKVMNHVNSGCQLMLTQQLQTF
UniProt Q8IW41: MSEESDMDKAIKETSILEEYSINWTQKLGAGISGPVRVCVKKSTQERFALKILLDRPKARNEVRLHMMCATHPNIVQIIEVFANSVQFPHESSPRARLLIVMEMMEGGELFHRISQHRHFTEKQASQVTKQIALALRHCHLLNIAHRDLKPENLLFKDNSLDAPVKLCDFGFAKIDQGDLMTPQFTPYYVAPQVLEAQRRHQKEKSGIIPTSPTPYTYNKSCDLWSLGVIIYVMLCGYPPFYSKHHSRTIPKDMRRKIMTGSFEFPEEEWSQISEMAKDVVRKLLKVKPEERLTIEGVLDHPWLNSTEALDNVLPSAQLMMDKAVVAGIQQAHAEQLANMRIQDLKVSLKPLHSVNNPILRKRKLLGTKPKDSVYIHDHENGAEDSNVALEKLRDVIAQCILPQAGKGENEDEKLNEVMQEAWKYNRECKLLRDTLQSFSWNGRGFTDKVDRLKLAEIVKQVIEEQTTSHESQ

Results are given in words; binding and its absence hold for the method and conditions named. In cells and extracts the contact can be indirect. Some results given as binding are weak or reduced against the parent protein; the word gives no strength.

This assay deals with c-Jun (human) (UniProt P05412). Kind of assay: co-IP; HCT116 cell lysates (1000 ug, RIPA lysis buffer with protease/phosphatase inhibitors) rotated overnight with anti-c-Jun, anti-MK5, anti-RBM4, anti-eIF4A1 IgG or rabbit IgG; Protein A/G agarose beads 4 h at 4 °C; washed three times with lysis buffer; western blot. In general terms: In western blotting, separated proteins are transferred to a membrane and probed.

Consider “MK5 (MAPK activated protein kinase 5) (from UniProt Q8IW41 1-473)”, for which the binding result is recorded as “binds”.
